# Measurements: the supplement of paper PMC8728848
# The list shows a part of the results.
# What was measured:
# Assay in all cases: glycan array binding signal (z-score within array); higher = stronger binding
# Details in all cases: glycan notation: IUPAC condensed, linker removed
# [1] = target: Gal(b1-4)Glc
# In short: (§1)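 Glycan array data were curated from 3228 arrays in the Consortium for Functional Glycomics database and kept only where the protein sequence was available. Glycan names were converted to IUPAC-condensed notation, and columns mapping to the same glycan were averaged. The binding signal is a within-array Z-score, averaged across arrays of the same protein sequence at different concentrations or buffers and across linkers. Negative Z-scores can be read as non-binding.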
# [2] = target: Gal(b1-4)Glc6S
# In short: as §1
# [3] = target: Gal(b1-4)GlcNAc
# In short: as §1
# [4] = target: Gal(b1-4)GlcNAc(a1-6)Gal(b1-4)GlcNAc
# In short: as §1
# [5] = target: Gal(b1-4)GlcNAc(b1-2)Man
# In short: as §1
# [6] = target: Gal(b1-4)GlcNAc(b1-2)Man(a1-3)Man(b1-4)GlcNAc(b1-4)GlcNAc
# In short: as §1
# [7] = target: Gal(b1-4)GlcNAc(b1-2)Man(a1-3)[Gal(b1-4)GlcNAc(b1-2)Man(a1-6)]Man(b1-4)GlcNAc(b1-4)GlcNAc
# In short: as §1
# [8] = target: Gal(b1-4)GlcNAc(b1-2)Man(a1-3)[Gal(b1-4)GlcNAc(b1-2)Man(a1-6)]Man(b1-4)GlcNAc(b1-4)[Fuc(a1-6)]GlcNAc
# In short: as §1
# [9] = target: Gal(b1-4)GlcNAc(b1-2)Man(a1-3)[Gal(b1-4)GlcNAc(b1-2)Man(a1-6)][Gal(b1-4)GlcNAc(b1-4)]Man(b1-4)GlcNAc(b1-4)[Fuc(a1-6)]GlcNAc
# In short: as §1
# [10] = target: Gal(b1-4)GlcNAc(b1-2)Man(a1-3)[Gal(b1-4)GlcNAc(b1-2)Man(a1-6)][GlcNAc(b1-4)]Man(b1-4)GlcNAc(b1-4)[Fuc(a1-6)]GlcNAc
# In short: as §1
# [11] = target: Gal(b1-4)GlcNAc(b1-2)Man(a1-3)[GlcNAc(b1-2)Man(a1-6)]Man(b1-4)GlcNAc(b1-4)GlcNAc
# In short: as §1
# [12] = target: Gal(b1-4)GlcNAc(b1-2)Man(a1-3)[GlcNAc(b1-4)][Gal(b1-4)GlcNAc(b1-2)Man(a1-6)]Man(b1-4)GlcNAc(b1-4)GlcNAc
# In short: as §1
# [13] = target: Gal(b1-4)GlcNAc(b1-2)Man(a1-3)[Man(a1-6)]Man(b1-4)GlcNAc(b1-4)GlcNAc
# In short: as §1
# [14] = target: Gal(b1-4)GlcNAc(b1-2)Man(a1-6)Man(b1-4)GlcNAc(b1-4)GlcNAc
# In short: as §1
# [15] = target: Gal(b1-4)GlcNAc(b1-2)Man(a1-6)[GlcNAc(b1-2)Man(a1-3)]Man(b1-4)GlcNAc(b1-4)GlcNAc
# In short: as §1
# [16] = target: Gal(b1-4)GlcNAc(b1-2)Man(a1-6)[Man(a1-3)]Man(b1-4)GlcNAc(b1-4)GlcNAc
# In short: as §1
# [17] = target: Gal(b1-4)GlcNAc(b1-2)[Gal(b1-4)GlcNAc(b1-4)]Man(a1-3)[Gal(b1-4)GlcNAc(b1-2)Man(a1-6)]Man(b1-4)GlcNAc(b1-4)GlcNAc
# In short: as §1
# [18] = target: Gal(b1-4)GlcNAc(b1-2)[Gal(b1-4)GlcNAc(b1-4)]Man(a1-3)[Gal(b1-4)GlcNAc(b1-2)[Gal(b1-4)GlcNAc(b1-6)]Man(a1-6)]Man(b1-4)GlcNAc(b1-4)GlcNAc
# In short: as §1
# [19] = target: Gal(b1-4)GlcNAc(b1-2)[Gal(b1-4)GlcNAc(b1-4)]Man(a1-3)[GlcNAc(b1-4)][Gal(b1-4)GlcNAc(b1-2)Man(a1-6)]Man(b1-4)GlcNAc(b1-4)GlcNAc
# In short: as §1
# [20] = target: Gal(b1-4)GlcNAc(b1-2)[Gal(b1-4)GlcNAc(b1-4)]Man(a1-3)[GlcNAc(b1-4)][Gal(b1-4)GlcNAc(b1-2)[Gal(b1-4)GlcNAc(b1-6)]Man(a1-6)]Man(b1-4)GlcNAc(b1-4)GlcNAc
# In short: as §1
# [21] = target: Gal(b1-4)GlcNAc(b1-2)[Gal(b1-4)GlcNAc(b1-6)]Man(a1-6)[Gal(b1-4)GlcNAc(b1-2)Man(a1-3)]Man(b1-4)GlcNAc(b1-4)GlcNAc
# In short: as §1
# [22] = target: Gal(b1-4)GlcNAc(b1-2)[Gal(b1-4)GlcNAc(b1-6)]Man(a1-6)[Gal(b1-4)GlcNAc(b1-2)Man(a1-3)]Man(b1-4)GlcNAc(b1-4)[Fuc(a1-6)]GlcNAc
# In short: as §1
binder,measurement,setting,value
pilr alpha (protein) MLYGVTQPKHLSASMGGSVEIPFSFYYPWELATAPDVRISWRRGHFHRQSFYSTRPPSIHKDYVNRLFLNWTEGQKSGFLRISNLQKQDQSVYFCRVELDTRSSGRQQWQSIEGTKLSIT,glycan array binding signal (z-score),[1],-0.468
same,glycan array binding signal (z-score),[2],1.06
same,glycan array binding signal (z-score),[3],-0.271
same,glycan array binding signal (z-score),[4],-0.083
same,glycan array binding signal (z-score),[5],-0.025
same,glycan array binding signal (z-score),[6],0.149
same,glycan array binding signal (z-score),[7],-0.557
same,glycan array binding signal (z-score),[8],0.154
same,glycan array binding signal (z-score),[9],-0.507
same,glycan array binding signal (z-score),[10],-0.682
same,glycan array binding signal (z-score),[11],-0.298
same,glycan array binding signal (z-score),[12],0.116
same,glycan array binding signal (z-score),[13],-0.118
same,glycan array binding signal (z-score),[14],-0.364
same,glycan array binding signal (z-score),[15],-0.551
same,glycan array binding signal (z-score),[16],0.006
same,glycan array binding signal (z-score),[17],-0.136
same,glycan array binding signal (z-score),[18],-0.368
same,glycan array binding signal (z-score),[19],-0.596
same,glycan array binding signal (z-score),[20],-0.302
same,glycan array binding signal (z-score),[21],-0.405
same,glycan array binding signal (z-score),[22],0.01
